The values below come from PubChem BioAssay AID212 (DTP/NCI, 2004).

For this test, the system named is BDF1 mice, colon carcinoma 38 sc, T/C %. The test can be described thus: NCI In Vivo Anticancer Drug Screen. Data for tumor model Colon Carcinoma 38 (subcutaneous) in B6D2F1 (BDF1) mice. To be noted: T/C endpoint: median tumor weight (est.), schedule: Q07DX002 (ip), vehicle: saline, evaluated on day 20, higher T/C = larger tumour. The protocol:
The antitumor activity of compounds was measured in mice bearing transplantable tumors. Survival or tumor size were measured and the results are expressed as the measurement made in the treated group (T) divided by the measurement made in the vehicle treated control group (C). The tumor model used in this assay is Colon Carcinoma 38 (subcutaneous) in B6D2F1 (BDF1) mice

The list is a part of this screen's results and no random one: its compounds were picked by chemical class. Not every dose and run of a compound is shown. T/C: endpoint of the treated group in % of that of the vehicle group. Schedule codes are those of the source, taken here to give the interval after Q, in days (D) or hours (H), and the number of doses after X. Some entries show no survivor count and are marked so; the dose need not have been tolerated. Some entries hold several experiments; their values stand side by side, smallest first.

`CC(=O)OC[C@]12C[C@H](OC(=O)CC(C)C)C(C)=C[C@H]1O[C@@H]1[C@H](O)[C@@H](O)[C@@]2(C)[C@@]12CO2`: the T/C (dose: 0.25 mg/kg/injection) is 81 % of control [survivor count not shown]; the T/C (dose: 0.5 mg/kg/injection) was 111 [survivor count not shown] and 129 % of control [survivor count not shown]; the T/C (dose: 1.0 mg/kg/injection) is 64 [survivor count not shown], 85 [survivor count not shown], 96 % of control [survivor count not shown]; the T/C (dose: 2.0 mg/kg/injection) is 27 [survivor count not shown], 58 [survivor count not shown], 74 % of control [survivor count not shown]; the T/C (dose: 4.0 mg/kg/injection) is 23 [survivor count not shown] and 38 % of control [survivor count not shown]; the T/C (dose: 8.0 mg/kg/injection) is 86 % of control [survivor count not shown]. The T/C (dose: 16.0 mg/kg/injection) was 35 % of control [survivor count not shown].
Turning to `CC(=O)OCC12CC(O)C(C)=CC1OC1C(O)C(OC(C)=O)C2(C)C12CO2` (configuration not stated), the T/C reads like this: (dose: 0.31 mg/kg/injection) 115 % of control [survivor count not shown]; (dose: 0.62 mg/kg/injection) 74 % of control [survivor count not shown]; (dose: 2.5 mg/kg/injection) 178 % of control [survivor count not shown]; (dose: 5.0 mg/kg/injection) 52 % of control [survivor count not shown]; (dose: 10.0 mg/kg/injection) 85 % of control [survivor count not shown].
